Library screen at single concentrations

From ChEMBL document CHEMBL3988442, “University of Dundee, Small-Polar-MMV Screening Library” (2021).

Mtb cholesterol medium: 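Phenotypic screen: M. tuberculosis growth, cholesterol and DPPC medium, 4 days; the read-out is not stated. Compounds at 50 µM. The record gives no direction; compounds that gave an IC50 in retests scored well above the rest, so higher reads as more growth inhibition. Of about 69,000 compounds tested this way, about 370 (0.54%) reached 50% or more in at least one test.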
Mtb glucose medium: 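Growth of Mycobacterium tuberculosis over 3 days (7H9 medium with glucose and tyloxapol); the read-out is not stated. Tested at 50 µM. Higher reads as more growth inhibition (inferred: compounds with an IC50 in retests scored well above the rest). About 69,000 compounds were tested under these conditions; 1.1% (about 760) showed 50% or more at least once.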

Values are the deposited “Percent Effect”, in %.
How 0% and 100% were set is not recorded. Most values in the screen are low, and negative values occur.
The compounds are a random part of those screened.
Two or more numbers in one place are separate tests of the same structure; such repeats can differ widely.

{"smiles": "[H][C@]12CCC[C@@]1(COCc1csc(C)n1)CN(Cc1cnn(C)c1)C2", "Mtb cholesterol medium": -0.1204, "Mtb glucose medium": 10.64}
{"smiles": "CC1(C)OC(=O)N(CC(=O)N2CCC(c3ccccc3F)C2)C1=O", "stereo": "stereo unspecified", "Mtb cholesterol medium": 10.35, "Mtb glucose medium": 13.32}
{"smiles": "CS(=O)(=O)c1cncnc1C1CCCN(C(=O)Cc2ccccc2F)C1", "stereo": "stereo unspecified", "Mtb cholesterol medium": "-2.233 and -7.161", "Mtb glucose medium": -2.63}
{"smiles": "COCC(C)(C#N)NC(=O)COc1ccccc1", "stereo": "stereo unspecified", "Mtb cholesterol medium": "-3.474 and -5.384", "Mtb glucose medium": "-8.256 and 1.286"}
{"smiles": "COCC(=O)N[C@H](C(=O)NC(C)c1cc(C)ccc1C)C(C)C", "stereo": "stereo partly specified", "Mtb cholesterol medium": 0.05802, "Mtb glucose medium": 13.17}
{"smiles": "CC(C)n1ccc2ccc(C(=O)NC3CN4CCC3CC4)cc21", "stereo": "stereo unspecified", "Mtb cholesterol medium": -1.171, "Mtb glucose medium": 24.75}
{"smiles": "O=C(O)CC(O)(CC(=O)O)C(=O)O.[H][C@@]12CC[C@@](O)(c3ccc(C)cn3)[C@]1([H])CN(Cc1cc(C)c(O)c(C)c1)C2", "Mtb cholesterol medium": 3.323, "Mtb glucose medium": 8.265}
{"smiles": "O=C(CC1CCc2ccccc21)NC1(C(=O)O)CCOCC1", "stereo": "stereo unspecified", "Mtb cholesterol medium": -9.297, "Mtb glucose medium": "-13.85 and -5.151"}
{"smiles": "[H][C@@]12C[C@@H](C(=O)Nc3cccnc3)CN(Cc3nccs3)[C@]1([H])CCO2", "Mtb cholesterol medium": -14.83, "Mtb glucose medium": -3.353}
{"smiles": "CN(C)C(=O)C1(CCCc2ccncc2)CCCN1", "stereo": "stereo unspecified", "Mtb cholesterol medium": -7.092, "Mtb glucose medium": -4.394}
{"smiles": "O=C(O)C(F)(F)F.O=C(O)C(F)(F)F.[H][C@@]12CCN(C(=O)c3cnn(C)c3)[C@@]1([H])CCN2Cc1cccc(C)n1", "Mtb cholesterol medium": -17.03, "Mtb glucose medium": "-6.036 and -25.42"}
{"smiles": "CC(O)CN1CCN(C(=O)c2ccn(-c3cccc(Cl)c3)n2)CC1", "stereo": "stereo unspecified", "Mtb cholesterol medium": -24.35, "Mtb glucose medium": -9.815}
{"smiles": "O=C(CCc1nc(Cl)n[nH]1)N1C[C@H](CO)C[C@H](CN2CCCC2)C1", "Mtb cholesterol medium": -4.27, "Mtb glucose medium": -1.792}
{"smiles": "COc1c(CNCc2cccnc2N2CCCCC2)c(C)nn1C", "Mtb cholesterol medium": 8.485, "Mtb glucose medium": -17.54}
{"smiles": "O=C(O)C1(Cc2ccccc2Cl)CCN(c2ncnc3[nH]ccc23)CC1", "Mtb cholesterol medium": -14.99, "Mtb glucose medium": 17.85}
{"smiles": "CC(C)N(Cc1nc2c(cnn2C)c(=O)[nH]1)c1ccccc1", "Mtb cholesterol medium": 2.841, "Mtb glucose medium": -12.08}
{"smiles": "CCc1nc(CN2CCCC(NCc3nc(C)c(C)o3)C2)no1", "stereo": "stereo unspecified", "Mtb cholesterol medium": 13.09, "Mtb glucose medium": -21.64}
{"smiles": "Cc1nc(CNC(=O)NC2CC(C)(C)OC2(C)C)sc1C", "stereo": "stereo unspecified", "Mtb cholesterol medium": 4.03, "Mtb glucose medium": -0.6474}
{"smiles": "FC(F)(F)CCc1ncnn1-c1ccc2c(c1)OCO2", "Mtb cholesterol medium": -3.784, "Mtb glucose medium": -6.178}
{"smiles": "[H][C@@]12OCCN(C(=O)C3CCOCC3)[C@@]1([H])CC[C@H]2OCC1CC1", "Mtb cholesterol medium": 5.476, "Mtb glucose medium": 24.35}
{"smiles": "COCc1nc(CN2CCOC(CNc3cccnn3)C2)cs1", "stereo": "stereo unspecified", "Mtb cholesterol medium": -4.979, "Mtb glucose medium": -17.46}
{"smiles": "CC(=O)NCCCSC1CCN(c2ccccc2Cl)C1=O", "stereo": "stereo unspecified", "Mtb cholesterol medium": 3.634, "Mtb glucose medium": "7.6 and 4.962"}
{"smiles": "CN1CCCN(C(=O)c2ccn3ccnc3c2)CC1", "Mtb cholesterol medium": -10, "Mtb glucose medium": -37.85}
{"smiles": "CC(C)n1ccc(-c2cc(C(=O)NC3CC3)c3ccccn23)n1", "Mtb cholesterol medium": 25.46, "Mtb glucose medium": "41.02 and 8.556"}
{"smiles": "COCCNC(=O)Cn1cc(NC(=O)c2cc(Cl)c(Cl)n2C)cn1", "Mtb cholesterol medium": -8.882, "Mtb glucose medium": -0.4327}
{"smiles": "O=C(Cc1ccc(F)cc1)N1CCn2cc(Cn3cncn3)nc2C1", "Mtb cholesterol medium": "-6.857 and 32.59", "Mtb glucose medium": -6.121}
{"smiles": "Cn1cc(N2CCC3(CCN(S(=O)(=O)C4CC4)C3)C2=O)cn1", "stereo": "stereo unspecified", "Mtb cholesterol medium": -14.23, "Mtb glucose medium": -21.28}
{"smiles": "Cc1ncsc1C(=O)N1CCCN(Cc2cscn2)CC1", "Mtb cholesterol medium": -8.283, "Mtb glucose medium": -10.39}
{"smiles": "CCN1CCN(C(=O)Cn2ncc3c2c(C)nn3C(C)C)CC1", "Mtb cholesterol medium": -10.98, "Mtb glucose medium": -41.67}
{"smiles": "CNCC(=O)N1CCCCC1c1nccc(C)n1", "stereo": "stereo unspecified", "Mtb cholesterol medium": -6.351, "Mtb glucose medium": 8.75}
{"smiles": "CCS(=O)(=O)NCCNc1c(C#N)cnc2c(C)cc(F)cc12", "Mtb cholesterol medium": -33.5, "Mtb glucose medium": "1.506 and -22.46"}
{"smiles": "Cc1ccc(CN2CC[C@]3(C[C@H](OCc4ccccn4)CO3)C2)o1.O=C(O)C(F)(F)F.O=C(O)C(F)(F)F", "Mtb cholesterol medium": -2.493, "Mtb glucose medium": 24.9}
{"smiles": "CC(C)C[C@H](NC(=O)Nc1ccc(F)c(Cl)c1)C(=O)O", "Mtb cholesterol medium": -27.7, "Mtb glucose medium": -41.64}
{"smiles": "CNC(=O)NC(=O)CN(C)C(c1cccnc1)c1ccc(F)cc1F", "stereo": "stereo unspecified", "Mtb cholesterol medium": "6.458 and 3.537", "Mtb glucose medium": 16.97}
{"smiles": "Cc1cc(C(=O)NC2CCCc3c2cnn3-c2cccc(C)c2C)[nH]n1", "stereo": "stereo unspecified", "Mtb cholesterol medium": -8.728, "Mtb glucose medium": 40.33}
{"smiles": "O=C(O)C(F)(F)F.O=C(O)C(F)(F)F.[H][C@@]12CCCO[C@]1([H])[C@H](N(C)Cc1ccco1)CN(CCOC)C2", "Mtb cholesterol medium": -22.22, "Mtb glucose medium": 4.146}
{"smiles": "CCc1cnc(N)nc1NCc1ccc(OC)cc1OC", "Mtb cholesterol medium": "-4.145 and -11.38", "Mtb glucose medium": "5.558 and 2.738"}

Some entries from above, unchanged:

SMILES	Mtb cholesterol medium	Mtb glucose medium
Cc1nc(CNC(=O)NC2CC(C)(C)OC2(C)C)sc1C (stereo unspecified)	4.03	-0.6474
CN(C)C(=O)C1(CCCc2ccncc2)CCCN1 (stereo unspecified)	-7.092	-4.394
FC(F)(F)CCc1ncnn1-c1ccc2c(c1)OCO2	-3.784	-6.178
CNC(=O)NC(=O)CN(C)C(c1cccnc1)c1ccc(F)cc1F (stereo unspecified)	6.458 and 3.537	16.97